Measurements from the supplement of paper PMC11006884.
The entries are a selection whose mix differs from that of the whole data set. The data scatter; read single values as rough.

Protein sequences, listed by entry. Tags and fused reporters are not part of them. Lines headed by an entry give the natural chain unless they say otherwise; changes in a name come on top.
UniProt Q16352: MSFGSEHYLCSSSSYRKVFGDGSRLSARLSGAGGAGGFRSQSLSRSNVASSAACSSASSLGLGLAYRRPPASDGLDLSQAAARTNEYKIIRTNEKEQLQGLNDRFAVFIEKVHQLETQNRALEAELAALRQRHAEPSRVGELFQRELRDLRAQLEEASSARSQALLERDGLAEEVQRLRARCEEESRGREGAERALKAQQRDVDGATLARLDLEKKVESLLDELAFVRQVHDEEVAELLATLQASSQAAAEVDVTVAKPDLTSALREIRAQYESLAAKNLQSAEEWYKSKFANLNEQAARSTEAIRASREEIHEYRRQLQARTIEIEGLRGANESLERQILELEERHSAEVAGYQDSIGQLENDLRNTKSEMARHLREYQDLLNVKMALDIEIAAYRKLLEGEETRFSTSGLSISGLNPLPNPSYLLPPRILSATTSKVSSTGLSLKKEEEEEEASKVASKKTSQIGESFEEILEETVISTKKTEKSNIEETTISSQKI
UniProt Q15796, whole entry, looked up: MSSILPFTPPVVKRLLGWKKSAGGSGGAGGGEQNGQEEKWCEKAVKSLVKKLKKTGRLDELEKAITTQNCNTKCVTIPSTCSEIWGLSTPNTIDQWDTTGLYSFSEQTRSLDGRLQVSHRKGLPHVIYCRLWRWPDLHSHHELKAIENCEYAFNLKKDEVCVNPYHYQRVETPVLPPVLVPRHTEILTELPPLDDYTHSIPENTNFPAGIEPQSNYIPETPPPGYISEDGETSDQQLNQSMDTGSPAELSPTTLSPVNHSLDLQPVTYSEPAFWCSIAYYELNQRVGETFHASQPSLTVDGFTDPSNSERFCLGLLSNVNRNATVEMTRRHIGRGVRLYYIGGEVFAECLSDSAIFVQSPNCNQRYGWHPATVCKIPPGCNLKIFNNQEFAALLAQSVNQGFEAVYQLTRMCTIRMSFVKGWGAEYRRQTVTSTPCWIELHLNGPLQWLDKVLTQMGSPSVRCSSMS
UniProt Q29RF7: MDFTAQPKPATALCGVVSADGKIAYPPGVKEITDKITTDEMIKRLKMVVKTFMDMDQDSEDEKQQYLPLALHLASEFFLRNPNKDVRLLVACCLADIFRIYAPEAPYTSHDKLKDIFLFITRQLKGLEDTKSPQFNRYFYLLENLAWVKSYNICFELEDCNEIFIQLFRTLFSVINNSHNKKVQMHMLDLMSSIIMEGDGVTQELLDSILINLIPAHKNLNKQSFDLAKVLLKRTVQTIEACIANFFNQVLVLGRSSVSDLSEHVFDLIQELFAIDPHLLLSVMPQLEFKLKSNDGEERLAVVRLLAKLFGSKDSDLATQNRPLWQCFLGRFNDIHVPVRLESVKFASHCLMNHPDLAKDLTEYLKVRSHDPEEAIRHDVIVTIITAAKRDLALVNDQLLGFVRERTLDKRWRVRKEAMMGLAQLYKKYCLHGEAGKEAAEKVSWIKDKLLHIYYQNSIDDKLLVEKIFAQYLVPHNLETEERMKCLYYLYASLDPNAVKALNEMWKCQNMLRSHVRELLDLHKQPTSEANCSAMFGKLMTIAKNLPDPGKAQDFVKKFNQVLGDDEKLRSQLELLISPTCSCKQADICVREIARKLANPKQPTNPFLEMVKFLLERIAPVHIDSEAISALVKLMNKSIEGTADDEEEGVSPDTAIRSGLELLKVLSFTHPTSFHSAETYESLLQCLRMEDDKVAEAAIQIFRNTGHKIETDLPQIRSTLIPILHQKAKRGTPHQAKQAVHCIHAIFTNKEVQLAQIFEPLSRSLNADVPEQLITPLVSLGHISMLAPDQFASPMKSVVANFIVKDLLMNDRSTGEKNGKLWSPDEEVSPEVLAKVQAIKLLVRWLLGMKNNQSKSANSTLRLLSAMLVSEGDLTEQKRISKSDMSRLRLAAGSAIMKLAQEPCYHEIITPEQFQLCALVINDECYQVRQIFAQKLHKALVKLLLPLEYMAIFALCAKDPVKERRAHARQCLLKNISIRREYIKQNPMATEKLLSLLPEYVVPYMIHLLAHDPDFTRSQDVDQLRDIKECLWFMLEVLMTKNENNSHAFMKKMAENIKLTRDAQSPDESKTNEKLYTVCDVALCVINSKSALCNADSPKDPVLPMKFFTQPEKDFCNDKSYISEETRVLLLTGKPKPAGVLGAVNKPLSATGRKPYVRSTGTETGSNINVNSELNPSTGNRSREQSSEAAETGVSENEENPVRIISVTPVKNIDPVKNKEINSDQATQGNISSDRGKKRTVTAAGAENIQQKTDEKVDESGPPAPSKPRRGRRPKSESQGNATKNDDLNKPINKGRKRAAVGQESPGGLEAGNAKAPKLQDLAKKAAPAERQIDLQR
UniProt Q1KMD3: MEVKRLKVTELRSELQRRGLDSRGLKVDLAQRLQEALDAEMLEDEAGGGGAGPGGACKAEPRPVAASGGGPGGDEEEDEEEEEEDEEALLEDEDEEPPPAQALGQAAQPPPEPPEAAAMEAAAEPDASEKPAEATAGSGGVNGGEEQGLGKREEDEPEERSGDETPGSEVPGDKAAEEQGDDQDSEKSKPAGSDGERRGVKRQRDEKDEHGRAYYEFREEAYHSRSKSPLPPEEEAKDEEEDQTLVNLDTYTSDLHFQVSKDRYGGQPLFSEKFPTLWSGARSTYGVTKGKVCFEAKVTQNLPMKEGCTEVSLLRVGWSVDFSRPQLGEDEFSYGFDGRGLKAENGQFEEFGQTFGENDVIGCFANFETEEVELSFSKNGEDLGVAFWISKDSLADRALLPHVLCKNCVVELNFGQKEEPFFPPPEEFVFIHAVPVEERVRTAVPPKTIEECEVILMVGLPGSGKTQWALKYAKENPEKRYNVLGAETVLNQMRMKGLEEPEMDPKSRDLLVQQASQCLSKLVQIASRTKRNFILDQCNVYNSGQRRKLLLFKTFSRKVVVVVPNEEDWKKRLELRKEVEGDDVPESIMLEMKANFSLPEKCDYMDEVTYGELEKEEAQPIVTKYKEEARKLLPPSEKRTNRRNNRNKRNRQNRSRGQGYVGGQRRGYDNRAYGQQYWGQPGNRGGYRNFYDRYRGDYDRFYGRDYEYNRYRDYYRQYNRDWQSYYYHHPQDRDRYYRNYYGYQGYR
UniProt Q15652: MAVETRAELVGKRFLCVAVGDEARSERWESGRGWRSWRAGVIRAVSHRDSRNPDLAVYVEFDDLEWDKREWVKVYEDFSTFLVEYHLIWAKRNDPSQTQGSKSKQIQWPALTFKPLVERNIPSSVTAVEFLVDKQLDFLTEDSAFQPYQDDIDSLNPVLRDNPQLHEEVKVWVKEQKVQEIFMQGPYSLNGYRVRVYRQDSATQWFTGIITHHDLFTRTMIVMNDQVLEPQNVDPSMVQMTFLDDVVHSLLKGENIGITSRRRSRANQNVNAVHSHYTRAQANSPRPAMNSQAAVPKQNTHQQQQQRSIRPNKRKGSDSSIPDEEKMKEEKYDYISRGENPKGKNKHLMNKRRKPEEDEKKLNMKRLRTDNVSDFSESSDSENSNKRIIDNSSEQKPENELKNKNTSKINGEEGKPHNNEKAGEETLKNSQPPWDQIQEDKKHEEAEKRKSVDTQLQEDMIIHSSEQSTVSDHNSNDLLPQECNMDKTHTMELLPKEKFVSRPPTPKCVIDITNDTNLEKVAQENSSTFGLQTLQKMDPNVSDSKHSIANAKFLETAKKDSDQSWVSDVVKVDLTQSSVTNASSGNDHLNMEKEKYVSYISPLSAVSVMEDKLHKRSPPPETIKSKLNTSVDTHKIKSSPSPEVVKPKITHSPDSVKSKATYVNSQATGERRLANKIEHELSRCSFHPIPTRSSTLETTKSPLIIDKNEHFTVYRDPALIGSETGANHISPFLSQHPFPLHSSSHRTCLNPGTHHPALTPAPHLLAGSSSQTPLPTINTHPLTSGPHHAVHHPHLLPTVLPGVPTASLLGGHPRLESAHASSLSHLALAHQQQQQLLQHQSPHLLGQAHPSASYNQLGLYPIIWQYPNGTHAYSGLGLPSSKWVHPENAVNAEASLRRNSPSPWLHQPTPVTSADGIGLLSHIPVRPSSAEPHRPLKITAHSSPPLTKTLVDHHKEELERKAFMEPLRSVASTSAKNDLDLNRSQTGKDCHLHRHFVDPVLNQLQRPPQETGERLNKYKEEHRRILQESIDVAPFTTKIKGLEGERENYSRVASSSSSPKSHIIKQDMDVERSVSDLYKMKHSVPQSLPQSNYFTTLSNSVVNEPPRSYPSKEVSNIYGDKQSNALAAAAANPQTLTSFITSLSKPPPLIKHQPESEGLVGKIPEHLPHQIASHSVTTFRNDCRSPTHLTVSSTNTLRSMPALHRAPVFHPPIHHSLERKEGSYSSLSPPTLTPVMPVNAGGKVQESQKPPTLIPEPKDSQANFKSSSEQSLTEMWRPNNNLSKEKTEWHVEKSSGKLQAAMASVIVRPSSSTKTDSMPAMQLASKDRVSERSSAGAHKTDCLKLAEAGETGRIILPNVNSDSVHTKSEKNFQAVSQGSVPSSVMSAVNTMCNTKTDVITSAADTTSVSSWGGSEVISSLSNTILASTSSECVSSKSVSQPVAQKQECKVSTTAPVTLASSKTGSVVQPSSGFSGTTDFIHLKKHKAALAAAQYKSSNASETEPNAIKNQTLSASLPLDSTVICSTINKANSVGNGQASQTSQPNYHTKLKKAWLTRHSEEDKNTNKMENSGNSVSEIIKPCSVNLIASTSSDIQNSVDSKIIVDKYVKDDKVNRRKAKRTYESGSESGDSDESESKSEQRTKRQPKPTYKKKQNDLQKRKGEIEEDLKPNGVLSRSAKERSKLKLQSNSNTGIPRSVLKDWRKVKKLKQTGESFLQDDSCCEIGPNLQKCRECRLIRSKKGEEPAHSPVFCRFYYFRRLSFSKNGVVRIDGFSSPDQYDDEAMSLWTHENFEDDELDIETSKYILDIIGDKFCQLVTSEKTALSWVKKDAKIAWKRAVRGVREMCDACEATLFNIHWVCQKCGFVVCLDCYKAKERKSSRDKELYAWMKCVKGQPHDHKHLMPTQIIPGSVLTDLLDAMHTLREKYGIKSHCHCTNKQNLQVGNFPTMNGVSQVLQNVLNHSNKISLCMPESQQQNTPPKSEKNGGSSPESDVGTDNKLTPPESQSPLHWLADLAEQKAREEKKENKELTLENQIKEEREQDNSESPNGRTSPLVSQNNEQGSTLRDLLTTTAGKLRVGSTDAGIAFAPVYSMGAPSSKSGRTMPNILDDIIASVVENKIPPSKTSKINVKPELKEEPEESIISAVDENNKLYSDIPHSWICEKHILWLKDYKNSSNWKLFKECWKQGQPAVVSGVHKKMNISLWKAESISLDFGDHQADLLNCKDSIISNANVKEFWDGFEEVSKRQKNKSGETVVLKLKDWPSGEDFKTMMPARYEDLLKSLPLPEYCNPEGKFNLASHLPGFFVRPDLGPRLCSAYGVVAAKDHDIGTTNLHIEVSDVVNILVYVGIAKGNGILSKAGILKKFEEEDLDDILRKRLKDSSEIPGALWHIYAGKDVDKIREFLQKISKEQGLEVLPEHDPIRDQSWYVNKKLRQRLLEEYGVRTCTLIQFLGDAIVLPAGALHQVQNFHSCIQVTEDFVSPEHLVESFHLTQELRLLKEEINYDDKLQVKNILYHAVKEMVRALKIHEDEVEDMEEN
UniProt Q15437: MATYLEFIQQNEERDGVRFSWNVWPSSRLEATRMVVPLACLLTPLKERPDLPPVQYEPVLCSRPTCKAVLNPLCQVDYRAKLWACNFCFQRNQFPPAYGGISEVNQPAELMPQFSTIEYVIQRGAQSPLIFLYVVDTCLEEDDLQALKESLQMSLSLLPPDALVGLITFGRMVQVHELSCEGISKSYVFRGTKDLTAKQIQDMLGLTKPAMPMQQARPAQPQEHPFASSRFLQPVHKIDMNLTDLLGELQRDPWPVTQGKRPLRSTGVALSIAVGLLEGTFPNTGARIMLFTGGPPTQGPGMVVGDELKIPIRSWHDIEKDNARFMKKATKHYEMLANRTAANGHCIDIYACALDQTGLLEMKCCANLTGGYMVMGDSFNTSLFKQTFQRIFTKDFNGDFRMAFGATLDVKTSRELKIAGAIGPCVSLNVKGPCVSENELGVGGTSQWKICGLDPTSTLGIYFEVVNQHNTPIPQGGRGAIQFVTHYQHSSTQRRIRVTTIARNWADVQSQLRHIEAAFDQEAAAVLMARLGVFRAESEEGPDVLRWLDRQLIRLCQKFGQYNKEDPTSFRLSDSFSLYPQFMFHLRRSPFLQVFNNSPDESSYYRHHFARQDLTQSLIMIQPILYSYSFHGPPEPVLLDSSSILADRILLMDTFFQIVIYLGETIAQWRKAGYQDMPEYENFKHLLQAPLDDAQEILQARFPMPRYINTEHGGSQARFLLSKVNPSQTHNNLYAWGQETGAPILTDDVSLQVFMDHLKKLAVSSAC

These targets were tested with COC(=O)/C=C/c1ccccc1 [methyl cinnamate] (assay: log2 ratio of iodoacetamide-alkyne labeling of the cysteine site, DMSO over compound (competition); higher = stronger covalent engagement of the cysteine by the compound, active = 1 or more). Conditions: 500 µM; treatment time 1 h; system: HEK293T cell lysate.
Summary of the method: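 After 1 h at ambient temperature with vehicle or electrophile (500 µM), HEK293T lysate (2 mg/mL) was labelled for 1 h with iodoacetamide alkyne and clicked to sCIP-TMT reagents. Pooled samples were trypsin-digested overnight at 37 °C, streptavidin-enriched, acid-eluted and analysed by Orbitrap Eclipse LC-MS/MS with FAIMS, then quantified in FragPipe over three replicates with duplicate channels. A cysteine's log2 competition ratio is its mean control-channel over mean compound-channel reporter intensity. Cysteines quantified in only one replicate were not included.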

log2 ratio of iodoacetamide-alkyne labeling, inactive:
UniProt Q16352_C54 0.284
GEN1 C866 (UniProt Q17RS7) 0.472
SMAD2 C41 (UniProt Q15796) 0.325
MAP7D1 C328 (UniProt Q3KQU3) 0.141
PDS5A C583 (UniProt Q29RF7) 0.265
HNRNPUL2 C308 (UniProt Q1KMD3) 0.241
PDS5A C1084 (UniProt Q29RF7) 0.0246
PCBP2 C217 (UniProt Q15366) 0.303
UniProt Q4ADV7_C182 -0.176
UniProt Q16352_C10 0.111
PCBP2 C118 (UniProt Q15366) 0.151
TSR1 C126 (UniProt Q2NL82) 0.0706
JMJD1C C508 (UniProt Q15652) 0.405
UBE3C C622 (UniProt Q15386) 0.174
QRICH1 C701 (UniProt Q2TAL8) 0.496
KIF14 C610 (UniProt Q15058) 0.353
ELF2 C470 (UniProt Q15723) 0.427
TNIP1 C212 (UniProt Q15025) 0.179
SEC23B C180 (UniProt Q15437) 0.247
MAP7D1 C373 (UniProt Q3KQU3) 0.105
SLC39A14 C118 (UniProt Q15043) 0.0567
LRRC41 C170 (UniProt Q15345) -0.189

Two entries picked at random from those above:
log2 ratio of iodoacetamide-alkyne labeling, inactive:
HNRNPUL2 C308 (UniProt Q1KMD3) 0.241
TSR1 C126 (UniProt Q2NL82) 0.0706
